The results in this text go back to the supplement of paper PMC12067093, “Discovery and optimisation of a covalent ligand for TRIM25 and its application to targeted protein ubiquitination” (Chemical Science, 2025).

The chains behind the UniProt entries cited, without tags or fusion partners. Where a name states a change or a piece, a line headed by the entry shows the natural chain unless it says otherwise.
UniProt P09110: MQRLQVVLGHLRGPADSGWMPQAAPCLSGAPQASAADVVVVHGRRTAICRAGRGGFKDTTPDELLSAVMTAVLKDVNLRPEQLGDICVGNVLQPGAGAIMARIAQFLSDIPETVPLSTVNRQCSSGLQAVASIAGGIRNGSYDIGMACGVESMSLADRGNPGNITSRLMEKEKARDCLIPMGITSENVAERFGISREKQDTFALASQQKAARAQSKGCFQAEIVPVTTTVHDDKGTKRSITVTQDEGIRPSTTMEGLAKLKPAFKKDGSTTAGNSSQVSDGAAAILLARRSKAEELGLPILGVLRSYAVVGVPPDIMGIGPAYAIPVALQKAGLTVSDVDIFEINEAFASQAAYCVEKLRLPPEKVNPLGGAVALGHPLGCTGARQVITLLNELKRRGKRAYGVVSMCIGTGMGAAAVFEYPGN
UniProt Q99798: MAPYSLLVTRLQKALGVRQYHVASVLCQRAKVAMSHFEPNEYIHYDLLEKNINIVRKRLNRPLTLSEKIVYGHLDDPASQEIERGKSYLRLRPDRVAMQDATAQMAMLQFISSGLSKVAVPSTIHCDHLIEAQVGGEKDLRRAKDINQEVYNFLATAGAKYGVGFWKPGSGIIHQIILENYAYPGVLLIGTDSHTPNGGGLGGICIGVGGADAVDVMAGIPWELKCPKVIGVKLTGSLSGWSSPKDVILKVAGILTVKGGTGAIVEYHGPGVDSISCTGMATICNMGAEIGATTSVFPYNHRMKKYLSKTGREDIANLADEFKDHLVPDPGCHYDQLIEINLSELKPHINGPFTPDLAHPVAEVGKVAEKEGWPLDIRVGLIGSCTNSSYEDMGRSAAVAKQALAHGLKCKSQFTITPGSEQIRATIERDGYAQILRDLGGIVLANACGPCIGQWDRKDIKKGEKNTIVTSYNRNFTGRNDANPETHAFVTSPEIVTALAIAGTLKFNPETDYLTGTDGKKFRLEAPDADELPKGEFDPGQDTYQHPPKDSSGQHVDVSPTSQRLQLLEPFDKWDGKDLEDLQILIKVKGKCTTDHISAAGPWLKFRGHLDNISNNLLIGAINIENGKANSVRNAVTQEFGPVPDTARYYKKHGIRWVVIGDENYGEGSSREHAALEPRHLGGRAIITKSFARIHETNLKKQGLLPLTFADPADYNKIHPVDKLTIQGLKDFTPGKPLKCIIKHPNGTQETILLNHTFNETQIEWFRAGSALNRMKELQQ
UniProt P24752: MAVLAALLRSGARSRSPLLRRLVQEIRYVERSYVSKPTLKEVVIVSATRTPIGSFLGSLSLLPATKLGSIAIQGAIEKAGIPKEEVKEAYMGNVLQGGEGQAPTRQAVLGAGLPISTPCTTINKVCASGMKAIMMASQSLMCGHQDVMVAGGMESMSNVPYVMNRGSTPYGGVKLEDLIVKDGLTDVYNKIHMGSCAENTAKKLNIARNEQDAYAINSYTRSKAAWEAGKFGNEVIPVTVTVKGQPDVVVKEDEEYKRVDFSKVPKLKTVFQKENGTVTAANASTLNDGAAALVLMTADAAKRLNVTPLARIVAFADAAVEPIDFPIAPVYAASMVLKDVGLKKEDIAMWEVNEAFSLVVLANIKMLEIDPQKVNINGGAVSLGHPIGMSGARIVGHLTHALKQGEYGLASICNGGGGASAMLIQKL
UniProt O95870: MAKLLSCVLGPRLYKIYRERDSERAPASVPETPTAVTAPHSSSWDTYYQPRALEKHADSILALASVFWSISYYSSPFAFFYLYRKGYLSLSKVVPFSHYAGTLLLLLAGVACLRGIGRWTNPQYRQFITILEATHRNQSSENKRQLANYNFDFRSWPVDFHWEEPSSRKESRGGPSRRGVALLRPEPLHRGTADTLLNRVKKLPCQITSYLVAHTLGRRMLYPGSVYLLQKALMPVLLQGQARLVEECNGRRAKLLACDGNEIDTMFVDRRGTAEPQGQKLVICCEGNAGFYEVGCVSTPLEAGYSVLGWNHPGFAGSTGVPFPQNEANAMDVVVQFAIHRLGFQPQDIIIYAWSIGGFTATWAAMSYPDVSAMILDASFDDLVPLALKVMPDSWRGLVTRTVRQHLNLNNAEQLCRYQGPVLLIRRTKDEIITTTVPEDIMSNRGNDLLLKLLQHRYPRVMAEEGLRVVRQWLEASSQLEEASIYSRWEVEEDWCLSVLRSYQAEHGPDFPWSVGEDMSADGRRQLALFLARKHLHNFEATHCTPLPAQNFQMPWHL
UniProt P21399: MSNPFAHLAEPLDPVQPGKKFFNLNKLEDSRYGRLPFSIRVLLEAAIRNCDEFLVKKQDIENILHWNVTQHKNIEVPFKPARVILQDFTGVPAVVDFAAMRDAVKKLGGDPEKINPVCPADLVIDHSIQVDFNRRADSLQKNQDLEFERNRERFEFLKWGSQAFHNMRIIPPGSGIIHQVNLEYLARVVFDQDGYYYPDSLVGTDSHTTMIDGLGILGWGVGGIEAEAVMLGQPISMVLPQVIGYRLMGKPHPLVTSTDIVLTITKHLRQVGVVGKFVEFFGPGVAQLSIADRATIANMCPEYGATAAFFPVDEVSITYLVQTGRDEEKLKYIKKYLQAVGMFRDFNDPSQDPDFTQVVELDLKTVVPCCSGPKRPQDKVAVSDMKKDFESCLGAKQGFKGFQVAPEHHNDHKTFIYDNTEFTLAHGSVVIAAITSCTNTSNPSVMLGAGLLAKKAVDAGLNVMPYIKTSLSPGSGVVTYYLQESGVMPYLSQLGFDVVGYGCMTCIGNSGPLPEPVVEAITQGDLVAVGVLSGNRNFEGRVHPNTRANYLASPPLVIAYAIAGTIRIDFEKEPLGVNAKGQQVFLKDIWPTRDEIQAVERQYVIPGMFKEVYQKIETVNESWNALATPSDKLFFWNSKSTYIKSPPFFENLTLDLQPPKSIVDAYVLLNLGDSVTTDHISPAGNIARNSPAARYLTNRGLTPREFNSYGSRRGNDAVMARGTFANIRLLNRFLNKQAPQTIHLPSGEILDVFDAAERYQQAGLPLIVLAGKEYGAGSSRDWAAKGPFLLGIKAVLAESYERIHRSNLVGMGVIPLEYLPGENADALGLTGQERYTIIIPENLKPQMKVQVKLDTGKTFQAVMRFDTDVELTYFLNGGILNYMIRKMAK
UniProt P49588, whole entry, looked up: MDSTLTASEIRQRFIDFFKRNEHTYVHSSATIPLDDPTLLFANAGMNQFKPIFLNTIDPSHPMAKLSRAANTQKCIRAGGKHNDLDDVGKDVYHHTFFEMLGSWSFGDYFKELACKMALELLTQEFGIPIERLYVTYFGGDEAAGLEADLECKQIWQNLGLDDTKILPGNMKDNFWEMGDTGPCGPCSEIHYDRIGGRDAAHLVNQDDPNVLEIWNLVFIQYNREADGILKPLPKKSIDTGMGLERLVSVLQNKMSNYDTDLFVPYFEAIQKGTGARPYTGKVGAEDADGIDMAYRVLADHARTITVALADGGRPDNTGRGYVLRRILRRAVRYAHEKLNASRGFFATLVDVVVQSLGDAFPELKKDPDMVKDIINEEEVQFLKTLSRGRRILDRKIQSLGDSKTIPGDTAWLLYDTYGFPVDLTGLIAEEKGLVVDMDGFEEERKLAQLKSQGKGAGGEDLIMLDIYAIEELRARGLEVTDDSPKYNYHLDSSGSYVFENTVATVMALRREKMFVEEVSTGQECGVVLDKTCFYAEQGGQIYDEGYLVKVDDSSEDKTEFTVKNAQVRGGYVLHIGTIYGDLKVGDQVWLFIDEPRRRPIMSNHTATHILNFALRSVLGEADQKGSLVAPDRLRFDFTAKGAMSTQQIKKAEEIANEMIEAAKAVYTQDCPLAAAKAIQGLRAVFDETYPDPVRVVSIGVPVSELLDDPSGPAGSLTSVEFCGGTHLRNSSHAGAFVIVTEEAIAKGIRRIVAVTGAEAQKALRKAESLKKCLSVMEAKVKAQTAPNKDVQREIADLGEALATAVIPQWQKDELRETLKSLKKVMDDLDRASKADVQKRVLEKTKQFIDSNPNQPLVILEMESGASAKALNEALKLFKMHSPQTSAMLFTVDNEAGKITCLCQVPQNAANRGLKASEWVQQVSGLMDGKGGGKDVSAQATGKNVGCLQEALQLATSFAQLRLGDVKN
UniProt Q9NUJ1: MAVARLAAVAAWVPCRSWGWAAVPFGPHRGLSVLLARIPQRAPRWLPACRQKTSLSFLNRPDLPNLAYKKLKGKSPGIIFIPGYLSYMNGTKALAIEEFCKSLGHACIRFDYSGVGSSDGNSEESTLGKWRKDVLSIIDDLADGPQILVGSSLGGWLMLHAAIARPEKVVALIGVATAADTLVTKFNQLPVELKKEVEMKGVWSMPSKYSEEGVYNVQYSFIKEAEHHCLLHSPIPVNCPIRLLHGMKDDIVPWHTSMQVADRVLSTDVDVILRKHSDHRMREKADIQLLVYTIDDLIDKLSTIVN
UniProt Q9BTE6: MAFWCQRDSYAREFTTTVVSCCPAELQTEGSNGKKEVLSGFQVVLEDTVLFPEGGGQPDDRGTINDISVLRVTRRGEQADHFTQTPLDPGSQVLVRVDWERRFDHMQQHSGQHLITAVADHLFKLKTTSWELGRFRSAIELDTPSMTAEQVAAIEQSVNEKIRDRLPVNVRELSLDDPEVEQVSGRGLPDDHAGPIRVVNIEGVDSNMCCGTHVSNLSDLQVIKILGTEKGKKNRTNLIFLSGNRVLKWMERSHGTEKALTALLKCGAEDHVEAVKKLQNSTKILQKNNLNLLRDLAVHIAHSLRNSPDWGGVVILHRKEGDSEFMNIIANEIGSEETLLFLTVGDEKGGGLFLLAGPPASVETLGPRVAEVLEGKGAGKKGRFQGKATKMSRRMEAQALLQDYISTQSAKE
UniProt Q5VST6: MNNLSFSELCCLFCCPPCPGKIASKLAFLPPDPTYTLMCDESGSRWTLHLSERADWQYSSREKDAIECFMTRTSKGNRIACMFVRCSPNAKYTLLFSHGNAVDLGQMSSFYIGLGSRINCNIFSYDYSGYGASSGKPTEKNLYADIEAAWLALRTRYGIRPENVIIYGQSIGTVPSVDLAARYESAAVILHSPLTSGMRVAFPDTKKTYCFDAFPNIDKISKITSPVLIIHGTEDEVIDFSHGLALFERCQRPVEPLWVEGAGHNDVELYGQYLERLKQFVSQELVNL
UniProt P42765: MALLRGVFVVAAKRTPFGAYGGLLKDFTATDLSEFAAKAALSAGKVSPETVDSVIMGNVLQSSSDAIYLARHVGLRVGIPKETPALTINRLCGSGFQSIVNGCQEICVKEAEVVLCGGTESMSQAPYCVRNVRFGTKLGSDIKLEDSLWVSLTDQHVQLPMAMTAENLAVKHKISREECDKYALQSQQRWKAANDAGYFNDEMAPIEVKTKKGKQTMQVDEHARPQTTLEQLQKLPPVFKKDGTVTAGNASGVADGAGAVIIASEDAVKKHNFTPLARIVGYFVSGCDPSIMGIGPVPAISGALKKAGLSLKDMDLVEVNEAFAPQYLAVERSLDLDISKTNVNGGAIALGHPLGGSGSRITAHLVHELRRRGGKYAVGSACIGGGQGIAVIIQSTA
UniProt Q2M2I8: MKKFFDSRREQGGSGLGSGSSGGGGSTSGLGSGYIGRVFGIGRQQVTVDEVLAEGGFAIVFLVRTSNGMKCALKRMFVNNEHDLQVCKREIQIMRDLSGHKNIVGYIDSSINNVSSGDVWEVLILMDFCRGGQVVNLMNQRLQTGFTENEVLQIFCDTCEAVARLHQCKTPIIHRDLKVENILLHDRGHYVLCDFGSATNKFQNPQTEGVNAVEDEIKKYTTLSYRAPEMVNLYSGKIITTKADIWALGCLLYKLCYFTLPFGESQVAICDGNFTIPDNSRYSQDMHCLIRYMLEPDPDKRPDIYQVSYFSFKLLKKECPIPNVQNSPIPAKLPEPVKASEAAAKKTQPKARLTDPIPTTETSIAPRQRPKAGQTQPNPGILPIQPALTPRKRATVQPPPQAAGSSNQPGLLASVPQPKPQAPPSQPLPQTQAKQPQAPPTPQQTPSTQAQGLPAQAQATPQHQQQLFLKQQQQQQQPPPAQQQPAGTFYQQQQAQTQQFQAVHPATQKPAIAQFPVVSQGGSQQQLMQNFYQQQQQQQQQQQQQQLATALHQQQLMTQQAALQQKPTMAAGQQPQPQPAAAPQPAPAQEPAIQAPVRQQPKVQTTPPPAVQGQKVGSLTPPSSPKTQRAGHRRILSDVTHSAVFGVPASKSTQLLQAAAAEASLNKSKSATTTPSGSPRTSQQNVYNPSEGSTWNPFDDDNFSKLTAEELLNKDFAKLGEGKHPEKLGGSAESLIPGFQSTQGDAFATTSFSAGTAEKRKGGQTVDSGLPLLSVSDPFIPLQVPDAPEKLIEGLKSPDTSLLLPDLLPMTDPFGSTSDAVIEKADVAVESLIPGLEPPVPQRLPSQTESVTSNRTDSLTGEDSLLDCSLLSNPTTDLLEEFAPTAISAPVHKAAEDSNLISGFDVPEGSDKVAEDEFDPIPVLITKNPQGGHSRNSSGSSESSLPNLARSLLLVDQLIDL

This is one part of the list.
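Also: competitive chemoproteomic profiling in live THP-1 cells with an iodoacetamide desthiobiotin (IA-DTB) probe, comparing probe-labelled peptide intensities in compound-treated cells against DMSO-treated controls.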

Compound in the experiment: CC1Cc2ccccc2N1C(=O)C1CCCN(C1)C(=O)CCl (mixture of isomers) [TRIM25 ligand 11 (diastereomer mixture)]
Briefly: probe-labelled cysteine peptide fold change vs DMSO (competition) (log2 fold change); higher = less target engagement (more negative = stronger competition). The note with it: 10 µM; THP-1; incubation time: 4 h.
With “ABCD1_P33897_599_EGGWEAMCDWK (UniProt P33897)”, the “probe-labelled cysteine peptide fold change” value stood at 0.077. The value for “ABCE1_P61221_65_KCPFGALSIVNLPSNLEK (UniProt P61221)” was -0.0198.

“ACAA1_P09110_177_DCLIPMGITSENVAER (UniProt P09110)”: the “probe-labelled cysteine peptide fold change” value is -0.13. In the case of “ACAA1_P09110_381_VNPLGGAVALGHPLGCTGAR (UniProt P09110)” it was 0.0215. In the case of “ACAA1_P09110_87_DVNLRPEQLGDICVGNVLQPGAGAIMAR (UniProt P09110)” it was 0.0464; in that of ACAA1_P09110_49_RTAICR (UniProt P09110), 0.0908. The value for “ACO2_Q99798_592_CTTDHISAAGPWLK (UniProt Q99798)” was 0.0877. On to “ACADS_P16219_109_GCASTGVIMSVNNSLYLGPILK (UniProt P16219)”, for which the “probe-labelled cysteine peptide fold change” value was 0.201.

For the target “ACBD5_Q5T8D3_83_QATEGPCK (UniProt Q5T8D3)”, the “probe-labelled cysteine peptide fold change” value was found to be 0.116.

As to “ACAT1_P24752_413_QGEYGLASICNGGGGASAMLIQKL (UniProt P24752)”, the “probe-labelled cysteine peptide fold change” value was -0.402. In the case of “AAAS_Q9NRG9_321_VWEAQMWTCER (UniProt Q9NRG9)” it was -0.0742; in that of “ABHD16A_O95870_544_HLHNFEATHCTPLPAQNFQMPWHL (UniProt O95870)”, -0.0573; in that of “ACAD9_Q9H845_613_RAYICAHPLDR (UniProt Q9H845)”, -0.0302. Regarding “ACADM_P11310_159_MTEEPLMCAYCVTEPGAGSDVAGIK (UniProt P11310)”, the “probe-labelled cysteine peptide fold change” value was -0.135. In the case of “ACO1_P21399_392_DFESCLGAK (UniProt P21399)” it was -0.0218; in that of “ACO2_Q99798_451_DLGGIVLANACGPCIGQWDRK (UniProt Q99798)”, -0.223. Turning to “ACAT1_P24752_119_QAVLGAGLPISTPCTTINK (UniProt P24752)”, the “probe-labelled cysteine peptide fold change” value stood at 0.0397. The value for “ACAA1_P09110_218_GCFQAEIVPVTTTVHDDK (UniProt P09110)” was -0.0953; that for “ABCF1_Q8NE71_655_ICIVGPNGVGK (UniProt Q8NE71)” was 0.144; that for “ACACA_Q13085_1230_MSFSSNLNHYGMTHVASVSDVLLDNSFTPPCQR (UniProt Q13085)” was -0.0851. In the case of “AARS2_Q5JTZ9_749_VVSVGVPVAHALDPASQAALQTSVELCCGTHLLR (UniProt Q5JTZ9)” it was -0.176; in that of “AARS_P49588_901+903_ITCLCQVPQNAANR (UniProt P49588)”, 0.18; in that of “ABHD17A_Q96GS6_205_YECAAVVLHSPLTSGMR (UniProt Q96GS6)”, 0.0924. The value for “ABHD10_Q9NUJ1_229_EAEHHCLLHSPIPVNCPIR (UniProt Q9NUJ1)” was -0.123; that for “AACS_Q86V21_493_AVWGESGELVCTKPIPCQPTHFWNDENGNK (UniProt Q86V21)” was 0.0688. In the case of “ACO2_Q99798_448+451_DLGGIVLANACGPCIGQWDRK (UniProt Q99798)”, the “probe-labelled cysteine peptide fold change” value was -0.253. In the case of “AARSD1_Q9BTE6_266_CGAEDHVEAVK (UniProt Q9BTE6)” it was 0.0742; in that of “ABHD17B_Q5VST6_68_DAIECFMTR (UniProt Q5VST6)”, -0.0364. “ABL1_P00519-2_39_HGGPHCNVFVEHEALQRPVASDFEPQGLSEAAR (UniProt P00519)”: the “probe-labelled cysteine peptide fold change” value was -0.11. In the case of “ABCE1_P61221_65_CPFGALSIVNLPSNLEK (UniProt P61221)” it was 0.107; in that of “ACAA2_P42765_287_IVGYFVSGCDPSIMGIGPVPAISGALK (UniProt P42765)”, 0.119.

Turning to “ACLY_P53396_519_AVQGMLDFDYVCSR (UniProt P53396)”, the “probe-labelled cysteine peptide fold change” value stood at 0.063.

Turning to “ABHD16A_O95870_248_LVEECNGR (UniProt O95870)”, the “probe-labelled cysteine peptide fold change” value was found to be 0.0101. The value for “AAK1_Q2M2I8_288_YSQDMHCLIR (UniProt Q2M2I8)” was 0.0172; that for “ACACA_Q13085_1176_DNTCVVEFQFMLPTSHPNR (UniProt Q13085)” was -0.0885; that for “AARS_P49588_671_AVYTQDCPLAAAK (UniProt P49588)” was 0.01. In the case of “ABCF2_Q9UG63_586_LIQQVAQEIWVCEK (UniProt Q9UG63)” it was 0.187; in that of “ACIN1_Q9UKV3_546_GITEECLK (UniProt Q9UKV3)”, -0.0875.
